Measurements reported in PubChem BioAssay AID252 (DTP/NCI, 2004).
The list is a part of this screen's results and no random one: it is rich in T/C values a quarter to a half above the control, in often repeated tests (any T/C) and in doses without a T/C. Further doses and runs are listed elsewhere. T/C is the treated group as % of the vehicle group. Some entries give survivors of the animals treated and no T/C: the source files T/C as zero there, which appears to mark a toxic dose or a test without result, not a measured value. Some doses without a T/C left all or most animals alive at the check, yet need not have been tolerated: the source hardly ever lists a survival T/C far under the control, and the zero likely stands for such cases as well. Survivors were counted at the toxicity check, usually on the fifth day, unless a day is given; later deaths do not show. Schedules are NCI's codes, taken here to give the interval after Q, in days (D) or hours (H), and the number of doses after X. Some schedules carry Z or #; the key to these is not given. Some entries hold several experiments; the results are listed from low to high. For survival time, this PubChem deposit counts one and a half times the control or more as active, and values a quarter to a half above the control carry no call in these data; other NCI protocols may use other cut-offs. Some T/C values are followed by the survivors on the day toxicity was checked, most often the fifth; without a count, all were alive then.

System: BDF1 mice, intracerebral L1210 leukemia, survival T/C
Assay: NCI In Vivo Anticancer Drug Screen. Data for tumor model L1210 Leukemia (intracerebral) in B6D2F1 (BDF1) mice
Conditions: T/C endpoint: mean survival time, higher T/C = longer survival
Procedure, shortened: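 Tumour was transplanted, animals received compound or vehicle, then survival in each group was measured and treated divided by control.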

[1] = dose: 125.0 mg/kg/injection, schedule: Q01DX Z (ip), vehicle: carboxymethylcellulose (CMC)
[2] = dose: 8.0 mg/kg/injection, schedule: Q01DX009 (ip), vehicle: saline
[3] = dose: 3.0 mg/kg/injection, schedule: Q01DX009 (ip), vehicle: saline
[4] = dose: 600.0 mg/kg/injection, schedule: Q01DX001 (ip), vehicle: carboxymethylcellulose (CMC)

Structure (SMILES): Cc1cc(C)c(NC(=O)N(CCCl)N=O)c(C)c1
- T/C (dose: 20.0 mg/kg/injection, schedule: Q01DX001 (ip), vehicle: other): 144 % of control
- T/C (dose: 25.0 mg/kg/injection, schedule: Q01DX001 (ip), vehicle: other): 125 % of control
- T/C (dose: 30.0 mg/kg/injection, schedule: Q01DX001 (ip), vehicle: other): 125 and 134 % of control
- T/C (dose: 38.0 mg/kg/injection, schedule: Q01DX001 (ip), vehicle: other): 148 % of control
- T/C (dose: 45.0 mg/kg/injection, schedule: Q01DX001 (ip), vehicle: other): 129 and 134 % of control
- T/C (dose: 57.0 mg/kg/injection, schedule: Q01DX001 (ip), vehicle: other): 144 % of control
- T/C (dose: 68.0 mg/kg/injection, schedule: Q01DX001 (ip), vehicle: other): 141 % of control
- T/C (dose: 86.0 mg/kg/injection, schedule: Q01DX001 (ip), vehicle: other): 140 % of control

Structure (SMILES): CC(=O)OC1CCC(NC(=O)N(CCCl)N=O)CC1 (stereo not given)
- T/C (dose: 16.0 mg/kg/injection, schedule: Q01DX001 (ip), vehicle: other): 141 % of control

Structure (SMILES): CC12CC3(C)CC(C)(C1)CC(NC(=O)N(CCCl)N=O)(C2)C3
- T/C (dose: 250.0 mg/kg/injection, schedule: Q01DX001 (ip), vehicle: other): 134 % of control
- T/C (dose: 375.0 mg/kg/injection, schedule: Q01DX001 (ip), vehicle: other): 131 % of control
- T/C (dose: 500.0 mg/kg/injection, schedule: Q01DX001 (ip), vehicle: other): 132 % of control
- T/C (dose: 750.0 mg/kg/injection, schedule: Q01DX001 (ip), vehicle: other): 126 % of control
- T/C (dose: 1000.0 mg/kg/injection, schedule: Q01DX001 (ip), vehicle: other): 143 % of control [5 of 6 alive]
- survivor count (dose: 1500.0 mg/kg/injection, schedule: Q01DX001 (ip), vehicle: other): 3 of 6

Structure (SMILES): CCn1cnc2c(SC3CCCC3)ncnc21
- T/C (dose: 15.0 mg/kg/injection, schedule: Q01DX015 (ip), vehicle: carboxymethylcellulose (CMC)): 125 % of control
- T/C (dose: 100.0 mg/kg/injection, schedule: Q01DX009 (ip), vehicle: carboxymethylcellulose (CMC)): 131 % of control [5 of 6 alive]
- T/C [1]: 137 % of control
- T/C (dose: 250.0 mg/kg/injection, schedule: Q01DX015 (ip), vehicle: carboxymethylcellulose (CMC)): 148 % of control
- T/C (dose: 500.0 mg/kg/injection, schedule: Q01DX015 (ip), vehicle: carboxymethylcellulose (CMC)): 145 % of control [8 of 10 alive]
- survivor count (dose: 800.0 mg/kg/injection, schedule: Q01DX009 (ip), vehicle: carboxymethylcellulose (CMC)): 0 of 6

Structure (SMILES): CCn1cnc2c(SC(C)C)ncnc21
- T/C [1]: 125 % of control

Structure (SMILES): O=NN(CCCl)C(=O)N[C@@H]1CCCC[C@H]1O
- survivor count (dose: 40.0 mg/kg/injection, schedule: Q01DX001 (ip), vehicle: saline with Tween-80): 9 of 10
- survivor count (dose: 60.0 mg/kg/injection, schedule: Q01DX001 (ip), vehicle: saline with Tween-80): 9 of 10
- survivor count (dose: 90.0 mg/kg/injection, schedule: Q01DX001 (ip), vehicle: saline with Tween-80): 8 of 10
- survivor count (dose: 133.0 mg/kg/injection, schedule: Q01DX001 (ip), vehicle: saline with Tween-80): 6 of 10
- survivor count (dose: 200.0 mg/kg/injection, schedule: Q01DX001 (ip), vehicle: saline with Tween-80): 0 of 10

Structure (SMILES): N[C@@H](Cc1ccc(N(CCCl)CCCl)cc1)C(=O)O
- T/C (dose: 4.0 mg/kg/injection, schedule: Q01DX009 (ip), vehicle: saline): 147 % of control
- T/C (dose: 4.0 mg/kg/injection, schedule: Q01DX Z (ip), vehicle: carboxymethylcellulose (CMC)): 140 % of control
- T/C [2]: 131 % of control
- T/C (dose: 9.0 mg/kg/injection, schedule: Q01DX001 (ip), vehicle: carboxymethylcellulose (CMC)): 126 % of control
- survivor count (dose: 12.5 mg/kg/injection, schedule: Q01DX Z (ip), vehicle: carboxymethylcellulose (CMC)): 10 of 10
- T/C (dose: 14.0 mg/kg/injection, schedule: Q01DX001 (ip), vehicle: carboxymethylcellulose (CMC), evaluated on day 45): 131 % of control
- T/C (dose: 14.0 mg/kg/injection, schedule: Q01DX001 (ip), vehicle: carboxymethylcellulose (CMC), run until all animals had died): 128 % of control
- survivor count (dose: 16.0 mg/kg/injection, schedule: Q01DX009 (ip), vehicle: saline): 9 of 10
- T/C (dose: 18.0 mg/kg/injection, schedule: Q01DX001 (ip), vehicle: carboxymethylcellulose (CMC)): 127 % of control
- T/C (dose: 21.0 mg/kg/injection, schedule: Q01DX001 (ip), vehicle: carboxymethylcellulose (CMC)): 135 % of control [9 of 10 alive]
- survivor count (dose: 25.0 mg/kg/injection, schedule: Q01DX Z (ip), vehicle: carboxymethylcellulose (CMC)): 8 of 10 and 9 of 10
- survivor count (dose: 29.0 mg/kg/injection, schedule: Q01DX001 (ip), vehicle: carboxymethylcellulose (CMC)): 9 of 10
- survivor count (dose: 50.0 mg/kg/injection, schedule: Q01DX Z (ip), vehicle: carboxymethylcellulose (CMC)): 0 of 10, 2 of 10, 4 of 10
- survivor count (dose: 75.0 mg/kg/injection, schedule: Q01DX Z (ip), vehicle: carboxymethylcellulose (CMC)): 0 of 10

Structure (SMILES): CCNC1=C(N2CC2)C(=O)C(NCC)=C(N2CC2)C1=O
- T/C (dose: 0.75 mg/kg/injection, schedule: Q01DX009 (ip), vehicle: saline): 135 % of control
- T/C (dose: 1.5 mg/kg/injection, schedule: Q01DX009 (ip), vehicle: saline): 125 and 130 % of control
- T/C [3]: 140 and 144 % of control
- survivor count [3]: 6 of 6
- survivor count (dose: 6.0 mg/kg/injection, schedule: Q01DX009 (ip), vehicle: saline): 5 of 6
- survivor count (dose: 12.0 mg/kg/injection, schedule: Q01DX009 (ip), vehicle: saline): 4 of 6

Structure (SMILES): CN(N=O)C(=O)NCCCCCNC(=O)N(C)N=O
- survivor count (dose: 840.0 mg/kg/injection, schedule: Q01DX001 (ip), vehicle: carboxymethylcellulose (CMC)): 5 of 10
- survivor count (dose: 1680.0 mg/kg/injection, schedule: Q01DX001 (ip), vehicle: carboxymethylcellulose (CMC)): 0 of 10
- survivor count (dose: 3360.0 mg/kg/injection, schedule: Q01DX001 (ip), vehicle: carboxymethylcellulose (CMC)): 0 of 10

Structure (SMILES): CN(N=O)C(=O)Nc1ccccc1
- survivor count [4]: 7 of 10
- survivor count (dose: 1200.0 mg/kg/injection, schedule: Q01DX001 (ip), vehicle: carboxymethylcellulose (CMC)): 0 of 10
- survivor count (dose: 2400.0 mg/kg/injection, schedule: Q01DX001 (ip), vehicle: carboxymethylcellulose (CMC)): 0 of 10

Structure (SMILES): CCCC(=O)NC1=C(N2CC2)C(=O)C(NC(=O)CCC)=C(N2CC2)C1=O
- T/C (dose: 2.0 mg/kg/injection, schedule: Q01DX009 (ip), vehicle: saline): 131 % of control

Structure (SMILES): CCCOC1=C(N2CC2)C(=O)C(OCCC)=C(N2CC2)C1=O
- T/C (dose: 8.0 mg/kg/injection, schedule: Q01DX005 (ip), vehicle: saline): 125 % of control
- T/C [2]: 135 % of control
- survivor count (dose: 16.0 mg/kg/injection, schedule: Q01DX005 (ip), vehicle: saline): 6 of 6

Structure (SMILES): O=NN(CCO)C(=O)Nc1c[nH]c(=O)[nH]c1=O
- survivor count [4]: 4 of 10

Structure (SMILES): CC(=O)c1ccc(NC(=O)N(CCCl)N=O)cc1
- T/C (dose: 112.0 mg/kg/injection, schedule: Q01DX001 (ip), vehicle: carboxymethylcellulose (CMC)): 127 % of control

Structure (SMILES): CCCCn1cnc2c(SC3CCCC3)ncnc21
- T/C (dose: 1000.0 mg/kg/injection, schedule: Q01DX001 (ip), vehicle: carboxymethylcellulose (CMC)): 125 % of control [5 of 6 alive]
